Reference: article PMC4907692, “Engineering vanilloid-sensitivity into the rat TRPV2 channel” (eLife, 2016)
Results are given in words; binding and its absence hold for the method and conditions named.

Amino acid sequences for entries named in this document (tags omitted). Residues count along the entry.
UniProt O35433, residues 431-575: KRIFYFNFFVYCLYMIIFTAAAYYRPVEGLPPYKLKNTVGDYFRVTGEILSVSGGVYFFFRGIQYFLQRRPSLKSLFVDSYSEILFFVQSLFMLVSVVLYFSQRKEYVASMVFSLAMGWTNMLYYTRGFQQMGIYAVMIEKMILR

Target: GFP-tagged TRPV1 S1-S4 domain (rat) (UniProt O35433)
Experiment: SEC

binding: no binding
Substance: GFP-tagged TRPV1 S1-S4 domain (from UniProt O35433 431-575) (domain or fragment)
